Test results from patent US10472381B2, “Sialic acid derivatives” (Reinhard Brossmer, priority 2014, dated 2019).
At least one structure is not confirmed: it was looked up by name or label, or the drawing left a doubt.

Molecular target: T1, CD22 (Homo sapiens, UniProt P20273)
T1 construct: The soluble CD22 protein was expressed in the CHO-Lec1 cell line; made in house; host or cells: CHO-Lec1
T1 sequence (P20273 20-687 limits assumed): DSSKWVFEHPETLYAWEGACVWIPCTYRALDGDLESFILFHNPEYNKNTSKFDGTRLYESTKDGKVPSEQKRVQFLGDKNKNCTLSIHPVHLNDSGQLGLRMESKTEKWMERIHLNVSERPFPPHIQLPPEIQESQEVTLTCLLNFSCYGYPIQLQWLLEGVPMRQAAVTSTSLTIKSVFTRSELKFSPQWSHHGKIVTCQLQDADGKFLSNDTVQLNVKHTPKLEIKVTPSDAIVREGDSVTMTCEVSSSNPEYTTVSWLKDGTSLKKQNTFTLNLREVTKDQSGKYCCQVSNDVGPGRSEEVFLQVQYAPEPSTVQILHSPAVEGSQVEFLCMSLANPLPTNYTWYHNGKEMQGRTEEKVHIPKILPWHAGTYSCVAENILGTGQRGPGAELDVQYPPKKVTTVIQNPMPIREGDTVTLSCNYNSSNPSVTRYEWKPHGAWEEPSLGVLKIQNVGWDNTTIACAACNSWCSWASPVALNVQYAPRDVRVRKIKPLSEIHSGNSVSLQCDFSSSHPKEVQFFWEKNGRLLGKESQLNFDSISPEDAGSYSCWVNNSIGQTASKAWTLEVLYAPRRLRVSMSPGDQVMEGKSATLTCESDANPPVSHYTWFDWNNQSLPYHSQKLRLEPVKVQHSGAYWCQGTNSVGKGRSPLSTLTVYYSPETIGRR
Assay: ELISA-based inhibition assay: inhibition of binding of soluble CD22 to immobilized IgM
Conditions: for rIP (relative inhibitory potency): Table I, relative to reference BPCNeu5Ac (rIP = 1)
Protocol: The biological activity of the substances was determined in an ELISA-based inhibition assay as described in “Eur. J. Immunol. 2012, 42, 2792-2802”. The sialic acid derivatives of the formula (I) inhibit the binding of soluble CD22 to immobilized IgM in proportion to their affinity for CD22. The soluble CD22 protein was expressed in the CHO-Lec1 cell line and isolated as described by “Eur. J. Immunol. 2012, 42, 2792-2802”. […] The increase in affinity is reported as rIP (relative inhibitory affinity).

| Structure (SMILES) | rIP (relative inhibitory potency) | rIP (Table II, relative to reference compound 10 co-tested in the same assay (rIP = 1)) |
| --- | --- | --- |
| CCC(=O)N[C@@H]1[C@@H](NC(C)=O)[C@H]([C@H](O)[C@H](O)CNC(=O)c2ccc(-c3ccccc3)cc2)O[C@@](OCCCCCC(=O)[O-])(C(=O)[O-])[C@H]1O.[Na+].[Na+] [Compound 10] | 1014 | 1 |
| CC(=O)N[C@@H]1[C@@H](NS(C)(=O)=O)[C@H](O)[C@](OCCCCCC(=O)[O-])(C(=O)[O-])O[C@H]1[C@H](O)[C@H](O)CNC(=O)c1ccc(-c2ccccc2)cc1.[Na+].[Na+] [Compound 11] | 793 | – |
| CC(=O)N[C@H]1[C@H]([C@H](O)[C@H](O)CNC(=O)c2ccc(-c3ccccc3)cc2)O[C@@](OCCCSCCC(=O)[O-])(C(=O)[O-])C[C@@H]1NC(=O)OC(C)(C)C.[Na+].[Na+] [Compound 29] | 71 | – |
